Measurements reported in PubChem BioAssay AID1671195 (Yale University, 2021).
Here is a random part of about 22,000 reagents. About 1,510 of all reagents (6.9%) were called active. 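Active includes knockdowns raising or lowering LDL uptake; positive z-scores mean more uptake, negative mean less.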 Reagent sequences are not shown.

- Purpose: 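Knockdowns that increase or decrease uptake of fluorescent LDL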 (primary screen)
- System: human Huh7 hepatoma cells
- Reagents: siRNA pool against human genes, 18 nM
- Time to read-out: about 2 to 2.5 days of knockdown, then 8 h LDL uptake
- Challenge: DiI-labelled LDL at 30 µg/ml for 8 h, in lipoprotein-deficient serum medium
- Measurement: 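Per-cell DiI-LDL intensity by automated imaging; well means scaled to the plate median and given as a robust z-score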
- Direction: robust z-score: higher = more LDL uptake after knockdown
- Call rule: 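Active when two or more replicates show a robust z-score above 2 or below -2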

For DEFB116, the values are robust z-score, replicate 1 = -0.529; robust z-score, replicate 2 = -0.696; robust z-score, replicate 3 = -0.346; inactive.
PPP6R2 gave robust z-score, replicate 1 = 0.927; robust z-score, replicate 2 = -0.36; robust z-score, replicate 3 = -0.878; inactive.
Against LPIN1 the deposit lists robust z-score, replicate 1 = -0.534; robust z-score, replicate 2 = 1.77; robust z-score, replicate 3 = -1.24; inactive.
For CXCL14 the deposit lists robust z-score, replicate 1 = 0.36; robust z-score, replicate 2 = 0.495; robust z-score, replicate 3 = 0.401; inactive.
After knock-down of ZNF827 the results were robust z-score, replicate 1 = 1.17; robust z-score, replicate 2 = 0.411; robust z-score, replicate 3 = 0.997; inactive.
Against CSPP1, the entry reads robust z-score, replicate 1 = -1.2; robust z-score, replicate 2 = -1.17; robust z-score, replicate 3 = -1.05; inactive.
Depletion of DDX46 came out at: robust z-score, replicate 1 = 0.556; robust z-score, replicate 2 = -0.145; robust z-score, replicate 3 = 0.0222; inactive.
With knock-down of SCO1, the screen gave robust z-score, replicate 1 = -1.12; robust z-score, replicate 2 = -1.36; robust z-score, replicate 3 = -1.15; inactive.
Knock-down of ABCF2 resulted in: robust z-score, replicate 1 = -0.0139; robust z-score, replicate 2 = 0.192; robust z-score, replicate 3 = -0.278; inactive.
Against KRT4 the deposit lists robust z-score, replicate 1 = -0.313; robust z-score, replicate 2 = -0.224; robust z-score, replicate 3 = -0.181; inactive.
Depletion of CD109 came out at: robust z-score, replicate 1 = -1.18; robust z-score, replicate 2 = 0.505; robust z-score, replicate 3 = 0.481; inactive.
MYPOP scored robust z-score, replicate 1 = -1.22; robust z-score, replicate 2 = -1.25; robust z-score, replicate 3 = -1.13; inactive.
LOC440462 (retired record) showed robust z-score, replicate 1 = 0.57; robust z-score, replicate 2 = 0.151; robust z-score, replicate 3 = 0.0999; inactive.
Silencing of FBN3 came out at: robust z-score, replicate 1 = 1.89; robust z-score, replicate 2 = -0.213; robust z-score, replicate 3 = 0.722; inactive.
Knock-down of RPL4 gave: robust z-score, replicate 1 = -0.746; robust z-score, replicate 2 = 0.00224; robust z-score, replicate 3 = -0.948; inactive.
MBTD1 scored robust z-score, replicate 1 = 1.45; robust z-score, replicate 2 = 1.54; robust z-score, replicate 3 = 3.32; inactive.
Silencing of ANKRD6 came out at: robust z-score, replicate 1 = -0.591; robust z-score, replicate 2 = -0.206; robust z-score, replicate 3 = -0.201; inactive.
Against AMFR the deposit lists robust z-score, replicate 1 = -0.454; robust z-score, replicate 2 = -0.637; robust z-score, replicate 3 = -0.285; inactive.
With knock-down of NUDT8, the record shows robust z-score, replicate 1 = 0.472; robust z-score, replicate 2 = 1.04; robust z-score, replicate 3 = 0.718; inactive.
After knock-down of LHX6 the results were robust z-score, replicate 1 = -1.58; robust z-score, replicate 2 = -1.76; robust z-score, replicate 3 = -1.68; inactive.
Against ATP5PB, the entry reads robust z-score, replicate 1 = 0.474; robust z-score, replicate 2 = 0.504; robust z-score, replicate 3 = 0.468; inactive.
Depletion of P2RX4 resulted in: robust z-score, replicate 1 = 0.444; robust z-score, replicate 2 = -0.404; robust z-score, replicate 3 = -0.0949; inactive.
Knock-down of ZBTB8A resulted in: robust z-score, replicate 1 = -0.922; robust z-score, replicate 2 = -0.112; robust z-score, replicate 3 = -1.28; inactive.
Against LINC02145 the deposit lists robust z-score, replicate 1 = -2.46; robust z-score, replicate 2 = -2.55; robust z-score, replicate 3 = -2.68; active.

Single entries from above:
Result for P2RX4 in “robust z-score, replicate 2”: -0.404
Entry for LOC440462 (retired record) under “robust z-score, replicate 3”: 0.0999
DDX46, robust z-score, replicate 3: 0.0222
